Test results from PubChem BioAssay AID540276 (National Center for Advancing Translational Sciences (NCATS), 2011).
About 5,400 (1.8%) of roughly 300,000 compounds were called active. The inconclusive results got no clear call from the source; some entries with a clear call stand among them for comparison. The call rests on the fitted dose curve; tested in HEK293 cells. A potency beside an inconclusive call is a rough fit, not a confirmed value.

Assay: qHTS for inhibitors of binding or entry into cells for Marburg Virus
Settings: Marburg virus pseudotyped entry inhibition, cell reporter; activity change, negative = inhibition: at 37.8 µM (top of the series) unless noted
On the % scale 0 is the no-effect control and ±100 the full control effect; potency means the concentration at half of the fitted maximal effect.

Row | Structure (SMILES) | Potency | activity change, negative = inhibition
1 | Cc1ccc(NC(=O)CN(C)CC(=O)Nc2c(C)cccc2C)c(Br)c1 | inconclusive: 5.62 µM [inhibitor, partial curve, poor fit] | 
2 | CC[C@@H](C)[C@H]1O[C@]2(CC[C@@H]1C)C[C@@H]1C[C@@H](C/C=C(\C)[C@@H](O[C@H]3C[C@H](OC)[C@@H](O[C@H]4C[C@H](OC)[C@@H](O)[C@H](C)O4)[C@H](C)O3)[C@@H](C)/C=C/C=C3\CO[C@@H]4[C@H](O)C(C)=C[C@@H](C(=O)O1)[C@]34O)O2 | active: 6.31 µM | 
3 | CCOC(=O)c1c(C)[nH]c(C(=O)COC(=O)c2ccc(O)cc2)c1C |  | inactive: 5.15% [at 46.1 µM]
4 | CCNC(=S)Nc1ccc(-c2nc3ccccc3[nH]2)cc1 | inconclusive: 35.5 µM [inhibitor, partial curve, poor fit] | 
5 | C/C(=N/NS(=O)(=O)c1ccccc1)c1ccc(NC(=O)C2CC2)cc1 | inconclusive: 3.55 µM [inhibitor, single point] | 
6 | CCN(CC)C(=O)Cn1cc(S(=O)(=O)CC(=O)Nc2ccccc2C)c2ccccc21 | inconclusive: 35.5 µM [activator, single point] | 
7 | Cc1noc(C)c1C(=O)OCC(=O)Nc1cccc(S(N)(=O)=O)c1 |  | inactive: 32.8% [at 46.1 µM]
8 | O=c1cc(O)n(-c2ccc(Cl)cc2)c(=S)[nH]1 | inconclusive: 5.62 µM [activator, single point] | 
9 | CC(=NCCCn1ccnc1)c1c(C)[nH]n(-c2ccc([N+](=O)[O-])cc2)c1=O | inconclusive: 0.562 µM [activator, full curve, poor fit] | 
10 | O=C(CCC(=O)c1cccs1)NCc1cccnc1 |  | inactive: 5.63% [at 46.1 µM]
11 | COc1ccc(-c2nc(CS(=O)(=O)CC(=O)Nc3ccc(Cl)cc3)c(C)o2)cc1 |  | inactive: -0.794%
12 | Cc1ccc(CCNC(=O)CCCn2c(=O)c3ccccc3n(Cc3ccccc3C#N)c2=O)cc1 | inconclusive: 22.4 µM [inhibitor, single point] | 
13 | CC1CCCN(C(=S)Nc2ccc3nc4n(c(=O)c3c2)CCCCC4)C1 (centres undefined) | inconclusive: 1.26 µM [activator, single point] | 
14 | CCN(Cc1ccncc1)C(=S)Nc1ccccc1 |  | inactive: 5.66% [at 46.1 µM]
15 | Cc1ccc(CNC(=O)CCc2c(C)nc3nc(C)nn3c2C)cc1 |  | inactive: 9.42% [at 46.1 µM]
16 | O=C(COC(=O)/C=C/c1ccc(OC(F)F)cc1)Nc1ccc(N2CCOCC2)cc1 | inconclusive: 1.26 µM [inhibitor, single point] | 
17 | CCCCCC(=O)N1CC2(C)CN(C(=O)CCCCC)CC(C)(C1)C2=O | inconclusive: 3.16 µM [inhibitor, single point] | 
18 | N#Cc1c(NCCCO)nc(-c2ccco2)c2c1CCCC2 |  | inactive: -9.57% [at 46.1 µM]
19 | O=[N+]([O-])c1ccc(C2=Nn3c(Cn4nnc5ccccc54)nnc3SC2)cc1 |  | inactive: -13.2% [at 46.1 µM]
20 | COc1ccc(O)c(/C=N/NC(=O)c2ccc(OCc3cccc(Br)c3)cc2)c1 | inconclusive: 10.3 µM [inhibitor, partial curve] | 
21 | COc1ccc(C(CC(=O)O)NC(=O)c2cc3cc(Br)ccc3oc2=O)cc1OC (centres undefined) |  | inconclusive: 18.5% [activator] [at 46.1 µM]
22 | CC(C)(C)c1nc2sc3c(c2c(=O)o1)CCCC3 | inconclusive: 6.31 µM [inhibitor, single point] | 

Ordered by length of the SMILES (smallest number first): part of the list above
Row | Structure (SMILES) | Potency | activity change, negative = inhibition
10 | O=C(CCC(=O)c1cccs1)NCc1cccnc1 |  | inactive: 5.63% [at 46.1 µM]
17 | CCCCCC(=O)N1CC2(C)CN(C(=O)CCCCC)CC(C)(C1)C2=O | inconclusive: 3.16 µM [inhibitor, single point] | 
9 | CC(=NCCCn1ccnc1)c1c(C)[nH]n(-c2ccc([N+](=O)[O-])cc2)c1=O | inconclusive: 0.562 µM [activator, full curve, poor fit] | 

Next results follow.

Row | Structure (SMILES) | Potency | activity change, negative = inhibition
23 | Cc1ccc(-n2ncc3c(=O)[nH]c(SC(C)C)nc32)cc1 |  | inactive: -9.97%
24 | COc1ccc(C(=O)NCC(=O)n2nc(C)cc2C)cc1OC | inconclusive: 3.26 µM [activator, single point] | 
25 | CCN(CC)CCn1c(SCC(=O)NCCC2=CCCCC2)nc2c(sc3ccccc32)c1=O | inconclusive: 2.51 µM [inhibitor, full curve, poor fit] | 
26 | Cc1cc(C)n(-c2nc3ccccc3nc2Nc2ccc(Cl)c(C(=O)OC(C)C)c2)n1 |  | inactive: 24.1% [at 46.1 µM]
27 | CN(C)C1(CNC(=O)c2ccc(Cl)c(S(=O)(=O)NCc3ccco3)c2)CCCCC1 | inconclusive: 8.2 µM [inhibitor, partial curve, poor fit] | 
28 | CCN(CC)Cc1cc(Nc2c3ccccc3nc3c4ccccc4n(C)c23)cc(CN(CC)CC)c1O | inconclusive: 3.98 µM [inhibitor, full curve, poor fit] | 
29 | CCCn1c(=O)c2ccccc2n2c(SCC(N)=O)nnc12 |  | inactive: -0.65% [at 46.1 µM]
30 | O=C(CSc1nnc(CNC(=O)c2c(F)cccc2F)o1)NCc1ccccc1 |  | inactive: 2.24%
31 | COc1cccc(-c2nnc(SCC(=O)N3CCC(C)CC3)o2)c1 | inconclusive: 5.01 µM [inhibitor, single point] | 
32 | Cc1ccc(-c2ccc(SCC(=O)N3CCCc4ccccc43)nn2)cc1 |  | inactive: -10.3%
33 | O=C(COC(=O)c1ccccc1Br)NCc1ccccc1 |  | inactive: 5.24%
34 | Cc1ccc(S(=O)(=O)N(CC(=O)Nc2cccc(N(C)S(C)(=O)=O)c2)c2ccc(Cl)c(Cl)c2)cc1 | active: 16.4 µM | 
35 | O=C(NC(=S)N1CCN(c2ccc(F)cc2)CC1)c1cccs1 | inconclusive: 25.1 µM [inhibitor, single point] | 
36 | CCOC(=O)N1CCN(C(=O)CSc2nc3nc(C)cc(C)n3n2)CC1 |  | inactive: 22%
37 | Cc1nnc(SCc2nc3ccccc3s2)n1N |  | inactive: -4.51% [at 46.1 µM]
38 | COc1ccc(S(=O)(=O)N(C)c2ccc(C(=O)N3CCCCC3)cc2)cc1OC |  | inactive: -16.5% [at 46.1 µM]
39 | Cc1cccc(NC(=O)Cn2c(=O)n(Cc3ccccc3)c(=O)c3c(C)c(C)sc32)c1 | inconclusive: 35.5 µM [inhibitor, single point] | 
40 | CC1CN(S(=O)(=O)c2cccc(C(=O)NCCC3=CCCCC3)c2)CC(C)O1 (centres undefined) | inconclusive: 35.5 µM [inhibitor, single point] | 
41 | COc1ccccc1NS(=O)(=O)c1cc(NC(=O)c2cccs2)ccc1N1CCOCC1 | inconclusive: 7.08 µM [inhibitor, partial curve, poor fit] | 
42 | COc1ccc([C@]23Cc4cc(C#N)ccc4[C@H](O2)C2=C(CC4(CCCCC4)OC2=O)O3)cc1 |  | inactive: 1.24% [at 14.2 µM]
43 | N#CCC(=O)N1CCN(C=O)CC1 | inconclusive: 3.55 µM [inhibitor, single point] | 
44 | C=CCN(C(=O)c1csnn1)C(C(=O)NCc1ccc(F)cc1)c1sccc1C (centres undefined) | inconclusive: 11.2 µM [inhibitor, partial curve, poor fit] | 
